Results taken from patent US20130273653A1, “DIAGNOSTIC MARKER FOR MELANOMA, PHARMACEUTICAL COMPOSITION COMPRISING INHIBITOR OF THE FUNCTION OF THE HISTATIN-1 PROTEIN AND IMMUNOSUPPRESSOR” (KEIO UNIVERSITY, priority 2010, published 2013).
Part of at least one peptide drawing is inferred or uncertain, most often the ends. Peptide text beside a SMILES is read from it.

Assays:
CD14 positive monocytes [1] = experiment: Cell surface marker expression (FACS) of dendritic cells differentiated with histatin-1 protein; assay type: cell-based, human
T cells = experiment: Stimulation of T cells by dendritic cells (IFN-γ ELISA); assay type: cell-based, human; details: dendritic cells:T cells 1:10; dependent on histatin-1 protein concentration used in differentiation; FIG. 10
CD14 positive monocytes [2] = experiment: Cytokine production (ELISA) by dendritic cells differentiated from monocytes with histatin-1 protein; assay type: cell-based, human; details: for amount of IL-10 produced by dendritic cells: FIG. 8C
[3] = tested on: human melanoma cell line C32mel; experiment: Melanoma cell migration assay, addition of histatin-1 protein; assay type: cell-based; details: 0, 5, 10 or 20 μg/ml histatin-1 protein added, FIG. 3
[4] = regardless of the concentration of the histatin-1 protein, FIG. 9

**Q.** Which “expression of cell surface marker CD14” value (CD14 positive monocytes [1]; dendritic cells differentiated with histatin-1 protein, FIG. 9A) does the source give for CC(C)C[C@H](NC(=O)[C@H](Cc1ccc(O)cc1)NC(=O)[C@H](CC(N)=O)NC(=O)[C@H](CO)NC(=O)CNC(=O)[C@H](Cc1ccc(O)cc1)NC(=O)[C@H](CC(=O)O)NC(=O)CNC(=O)[C@H](Cc1ccc(O)cc1)NC(=O)[C@H](Cc1ccccc1)NC(=O)[C@@H]1CCCN1C(=O)[C@H](Cc1ccccc1)NC(=O)[C@H](CCC(=O)O)NC(=O)[C@H](CCCNC(=N)N)NC(=O)[C@H](Cc1c[nH]cn1)NC(=O)[C@H](CO)NC(=O)[C@H](Cc1c[nH]cn1)NC(=O)[C@H](Cc1c[nH]cn1)NC(=O)[C@H](CCCCN)NC(=O)[C@H](CCC(=O)O)NC(=O)[C@H](Cc1c[nH]cn1)NC(=O)[C@H](Cc1ccccc1)NC(=O)[C@H](CCCCN)NC(=O)[C@H](CCCNC(=N)N)NC(=O)[C@H](CCCNC(=N)N)NC(=O)[C@H](Cc1ccc(O)cc1)NC(=O)CNC(=O)[C@H](Cc1c[nH]cn1)NC(=O)[C@H](Cc1c[nH]cn1)NC(=O)[C@H](CCCNC(=N)N)NC(=O)[C@H](CCCCN)NC(=O)[C@H](CCC(=O)O)NC(=O)[C@H](Cc1c[nH]cn1)NC(=O)[C@H](CO)NC(=O)[C@@H](N)CC(=O)O)C(=O)N[C@@H](Cc1ccc(O)cc1)C(=O)N[C@@H](CC(=O)O)C(=O)N[C@@H](CC(N)=O)C(=O)O [histatin-1 protein] (H-DSHEKRHHGYRRKFHEKHHSHREFPFYGDYGSNYLYDN-OH) here?
**A.** CD14 negative

**Q.** What about the “expression level of CD80” value (CD14 positive monocytes [1]; [4]) of the same molecule?
**A.** constant

**Q.** And the “expression level of CD83” value (CD14 positive monocytes [1]; [4])?
**A.** constant

**Q.** What about the “expression level of CD86” value (CD14 positive monocytes [1]; [4]) of the same molecule?
**A.** constant

**Q.** What about the “expression level of HLA-DR” value (CD14 positive monocytes [1]; [4]) of the same molecule?
**A.** constant

**Q.** And the “amount of IFN-γ produced by T cells” value (T cells)?
**A.** decreased

**Q.** What about the “amount of IL-12 produced by dendritic cells” value (CD14 positive monocytes [2]; histatin-1 protein 0, 5 or 10 μg/ml, depending on concentration, FIG. 8A) of the same molecule?
**A.** significantly decreased

**Q.** And the “amount of TNF-α produced by dendritic cells” value (CD14 positive monocytes [2]; histatin-1 protein 0, 5 or 10 μg/ml, depending on concentration, FIG. 8B)?
**A.** significantly decreased

**Q.** What about the “amount of IL-10 produced by dendritic cells” value (CD14 positive monocytes [2]; histatin-1 protein 5 μg/ml) of the same molecule?
**A.** significantly increased

**Q.** What about the “amount of IL-10 produced by dendritic cells” value (CD14 positive monocytes [2]; histatin-1 protein 10 μg/ml, compared to 0 μg/ml) of the same molecule?
**A.** increased

**Q.** What about the “migration capacity of the tumor cells” value [3] of the same molecule?
**A.** enhanced
